Test results: the supplement of paper PMC10849652
This is one part of the list.

Amino acid sequences for entries named in this document (tags omitted). A change or cut given only in a name is not applied to a line headed by its entry.
UniProt O95400: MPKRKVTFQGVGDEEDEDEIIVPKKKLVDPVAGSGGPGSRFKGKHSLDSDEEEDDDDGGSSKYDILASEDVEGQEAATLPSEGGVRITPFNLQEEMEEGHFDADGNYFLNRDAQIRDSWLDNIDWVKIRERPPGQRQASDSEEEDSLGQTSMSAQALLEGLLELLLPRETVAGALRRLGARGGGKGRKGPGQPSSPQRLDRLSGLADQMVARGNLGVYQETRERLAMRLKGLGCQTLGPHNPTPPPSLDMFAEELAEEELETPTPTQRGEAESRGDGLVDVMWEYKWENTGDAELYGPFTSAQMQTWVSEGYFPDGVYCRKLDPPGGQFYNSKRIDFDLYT
UniProt Q92851: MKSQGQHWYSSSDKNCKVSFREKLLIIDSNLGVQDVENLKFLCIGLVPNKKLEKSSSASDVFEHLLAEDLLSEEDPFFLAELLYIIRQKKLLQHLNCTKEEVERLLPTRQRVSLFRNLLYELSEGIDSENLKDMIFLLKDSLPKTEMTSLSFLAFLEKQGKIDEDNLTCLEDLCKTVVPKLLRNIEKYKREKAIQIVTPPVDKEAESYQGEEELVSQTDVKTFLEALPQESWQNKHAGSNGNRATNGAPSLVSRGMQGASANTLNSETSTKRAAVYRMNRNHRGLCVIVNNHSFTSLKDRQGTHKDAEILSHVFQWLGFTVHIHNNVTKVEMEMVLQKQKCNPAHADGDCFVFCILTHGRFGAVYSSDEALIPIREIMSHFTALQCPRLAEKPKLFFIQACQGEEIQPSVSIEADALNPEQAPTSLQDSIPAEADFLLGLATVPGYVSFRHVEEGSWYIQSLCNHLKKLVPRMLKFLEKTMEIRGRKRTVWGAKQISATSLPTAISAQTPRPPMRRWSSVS
UniProt Q8ND76: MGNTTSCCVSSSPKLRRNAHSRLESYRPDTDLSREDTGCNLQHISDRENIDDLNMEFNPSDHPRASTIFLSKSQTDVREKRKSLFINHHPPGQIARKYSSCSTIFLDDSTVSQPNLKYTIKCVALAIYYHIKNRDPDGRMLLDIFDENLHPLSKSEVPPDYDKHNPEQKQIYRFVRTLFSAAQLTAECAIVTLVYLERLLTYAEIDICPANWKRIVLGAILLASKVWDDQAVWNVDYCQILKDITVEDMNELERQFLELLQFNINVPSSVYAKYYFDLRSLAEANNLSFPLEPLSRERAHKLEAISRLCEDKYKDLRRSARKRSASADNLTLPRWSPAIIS
UniProt P51946: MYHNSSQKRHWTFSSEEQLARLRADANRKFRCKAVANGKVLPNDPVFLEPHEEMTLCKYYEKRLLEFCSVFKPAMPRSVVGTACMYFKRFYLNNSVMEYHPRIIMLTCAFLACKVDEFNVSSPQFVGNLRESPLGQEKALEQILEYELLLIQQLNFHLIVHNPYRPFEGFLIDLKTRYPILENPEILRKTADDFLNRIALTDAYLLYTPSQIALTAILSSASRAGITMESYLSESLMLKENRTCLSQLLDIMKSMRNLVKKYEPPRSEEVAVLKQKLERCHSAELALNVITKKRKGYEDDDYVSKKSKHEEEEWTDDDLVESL
UniProt Q96MW1: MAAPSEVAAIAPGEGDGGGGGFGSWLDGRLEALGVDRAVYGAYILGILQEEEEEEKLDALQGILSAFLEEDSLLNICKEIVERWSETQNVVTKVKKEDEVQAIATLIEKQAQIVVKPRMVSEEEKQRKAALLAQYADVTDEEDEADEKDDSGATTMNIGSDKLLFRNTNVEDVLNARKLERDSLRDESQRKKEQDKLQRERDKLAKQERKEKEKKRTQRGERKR
UniProt Q9H6E4: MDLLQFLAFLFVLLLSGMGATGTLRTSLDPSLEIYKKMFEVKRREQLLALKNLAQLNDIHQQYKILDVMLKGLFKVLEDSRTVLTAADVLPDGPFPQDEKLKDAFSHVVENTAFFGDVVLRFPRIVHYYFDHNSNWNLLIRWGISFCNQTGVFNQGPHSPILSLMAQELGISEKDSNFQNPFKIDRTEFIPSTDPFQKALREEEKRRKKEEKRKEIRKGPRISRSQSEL
UniProt Q9Y3X0: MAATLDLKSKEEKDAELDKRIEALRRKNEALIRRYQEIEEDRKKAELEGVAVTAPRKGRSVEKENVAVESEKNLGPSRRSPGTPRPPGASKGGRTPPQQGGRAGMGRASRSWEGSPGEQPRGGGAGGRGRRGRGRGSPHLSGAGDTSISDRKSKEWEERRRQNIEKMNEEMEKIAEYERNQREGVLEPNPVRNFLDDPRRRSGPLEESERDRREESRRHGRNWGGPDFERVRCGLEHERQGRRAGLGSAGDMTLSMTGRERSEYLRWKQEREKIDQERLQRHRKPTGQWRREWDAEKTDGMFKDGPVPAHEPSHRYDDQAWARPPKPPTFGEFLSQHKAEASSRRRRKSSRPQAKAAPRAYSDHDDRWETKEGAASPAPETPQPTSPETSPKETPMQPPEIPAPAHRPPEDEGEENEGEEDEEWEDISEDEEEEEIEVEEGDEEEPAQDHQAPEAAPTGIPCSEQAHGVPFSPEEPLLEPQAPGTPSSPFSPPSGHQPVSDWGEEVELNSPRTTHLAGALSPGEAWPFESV
UniProt Q99832: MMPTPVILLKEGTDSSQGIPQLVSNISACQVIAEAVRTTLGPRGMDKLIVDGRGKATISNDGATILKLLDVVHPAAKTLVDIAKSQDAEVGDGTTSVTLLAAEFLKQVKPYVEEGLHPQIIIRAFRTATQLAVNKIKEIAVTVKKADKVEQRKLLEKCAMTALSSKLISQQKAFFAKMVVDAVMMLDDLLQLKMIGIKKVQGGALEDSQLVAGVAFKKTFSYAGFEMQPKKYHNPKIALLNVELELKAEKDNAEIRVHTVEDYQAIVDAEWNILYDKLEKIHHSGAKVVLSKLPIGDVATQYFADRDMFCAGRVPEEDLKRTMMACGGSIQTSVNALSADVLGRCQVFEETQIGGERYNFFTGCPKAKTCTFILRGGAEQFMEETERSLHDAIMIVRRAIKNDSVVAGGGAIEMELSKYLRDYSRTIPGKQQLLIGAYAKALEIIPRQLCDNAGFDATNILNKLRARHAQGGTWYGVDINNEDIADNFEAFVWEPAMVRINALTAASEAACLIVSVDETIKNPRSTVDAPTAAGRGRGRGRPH
UniProt Q13951, whole entry, looked up: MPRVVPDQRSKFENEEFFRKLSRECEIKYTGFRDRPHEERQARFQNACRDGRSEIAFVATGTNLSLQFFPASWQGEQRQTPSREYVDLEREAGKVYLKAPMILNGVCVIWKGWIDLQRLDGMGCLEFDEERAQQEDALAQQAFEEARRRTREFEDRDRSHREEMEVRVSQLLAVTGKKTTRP
UniProt Q9NPF0: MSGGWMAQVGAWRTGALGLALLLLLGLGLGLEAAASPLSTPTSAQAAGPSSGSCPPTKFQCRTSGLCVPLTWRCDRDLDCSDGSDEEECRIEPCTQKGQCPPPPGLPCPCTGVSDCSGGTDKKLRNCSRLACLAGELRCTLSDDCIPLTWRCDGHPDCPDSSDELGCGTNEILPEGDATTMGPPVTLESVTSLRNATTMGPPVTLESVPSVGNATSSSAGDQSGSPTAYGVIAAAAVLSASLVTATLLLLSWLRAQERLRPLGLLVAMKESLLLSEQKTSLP
UniProt P16152: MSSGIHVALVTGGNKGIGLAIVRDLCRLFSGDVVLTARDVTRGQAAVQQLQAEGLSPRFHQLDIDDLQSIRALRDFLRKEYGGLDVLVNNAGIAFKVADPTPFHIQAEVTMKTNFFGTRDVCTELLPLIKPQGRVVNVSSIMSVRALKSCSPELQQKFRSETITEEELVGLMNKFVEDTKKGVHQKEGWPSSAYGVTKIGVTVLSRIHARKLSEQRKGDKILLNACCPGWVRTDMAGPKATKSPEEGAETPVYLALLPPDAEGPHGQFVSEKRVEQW
UniProt Q8IVM0: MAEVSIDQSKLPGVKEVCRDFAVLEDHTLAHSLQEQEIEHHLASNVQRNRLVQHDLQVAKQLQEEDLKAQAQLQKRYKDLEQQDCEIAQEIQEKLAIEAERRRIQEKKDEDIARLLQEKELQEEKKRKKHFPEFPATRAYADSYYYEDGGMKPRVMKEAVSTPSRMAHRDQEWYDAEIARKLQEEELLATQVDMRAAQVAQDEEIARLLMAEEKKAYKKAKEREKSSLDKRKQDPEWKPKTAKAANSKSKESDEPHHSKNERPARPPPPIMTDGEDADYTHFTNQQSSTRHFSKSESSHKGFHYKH
UniProt P45973, whole entry, looked up: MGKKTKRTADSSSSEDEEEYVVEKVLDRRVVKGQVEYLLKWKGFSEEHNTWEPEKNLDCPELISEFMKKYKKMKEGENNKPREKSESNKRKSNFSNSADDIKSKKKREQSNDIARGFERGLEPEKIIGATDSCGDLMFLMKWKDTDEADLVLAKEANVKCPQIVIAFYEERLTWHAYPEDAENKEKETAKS
UniProt Q75N03: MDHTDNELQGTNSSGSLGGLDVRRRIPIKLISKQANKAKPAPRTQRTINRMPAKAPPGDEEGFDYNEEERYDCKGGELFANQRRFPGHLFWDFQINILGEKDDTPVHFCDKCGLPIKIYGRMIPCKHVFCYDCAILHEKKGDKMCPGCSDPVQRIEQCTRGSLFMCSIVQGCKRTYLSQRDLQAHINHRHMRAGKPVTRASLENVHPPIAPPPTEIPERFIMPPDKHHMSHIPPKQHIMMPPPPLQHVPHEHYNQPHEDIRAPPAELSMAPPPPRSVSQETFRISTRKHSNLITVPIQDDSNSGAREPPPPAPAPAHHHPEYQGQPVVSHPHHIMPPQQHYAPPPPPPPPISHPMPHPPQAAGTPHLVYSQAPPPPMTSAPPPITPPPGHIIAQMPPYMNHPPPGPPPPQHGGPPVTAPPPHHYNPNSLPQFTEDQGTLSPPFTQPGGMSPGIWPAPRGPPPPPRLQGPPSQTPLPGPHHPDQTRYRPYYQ
UniProt Q6PII3: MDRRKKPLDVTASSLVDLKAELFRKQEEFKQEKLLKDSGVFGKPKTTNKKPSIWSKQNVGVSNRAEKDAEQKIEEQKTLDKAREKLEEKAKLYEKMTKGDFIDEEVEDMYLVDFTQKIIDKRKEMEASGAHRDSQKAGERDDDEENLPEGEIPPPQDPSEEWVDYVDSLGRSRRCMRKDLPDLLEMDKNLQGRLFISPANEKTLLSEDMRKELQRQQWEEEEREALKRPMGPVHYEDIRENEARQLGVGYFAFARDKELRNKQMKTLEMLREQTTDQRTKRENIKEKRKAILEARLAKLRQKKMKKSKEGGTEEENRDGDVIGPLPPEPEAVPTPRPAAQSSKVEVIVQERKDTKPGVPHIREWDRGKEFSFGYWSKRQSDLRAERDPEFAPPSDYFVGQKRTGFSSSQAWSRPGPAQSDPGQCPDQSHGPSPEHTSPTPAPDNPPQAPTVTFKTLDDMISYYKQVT
UniProt P08962, whole entry, looked up: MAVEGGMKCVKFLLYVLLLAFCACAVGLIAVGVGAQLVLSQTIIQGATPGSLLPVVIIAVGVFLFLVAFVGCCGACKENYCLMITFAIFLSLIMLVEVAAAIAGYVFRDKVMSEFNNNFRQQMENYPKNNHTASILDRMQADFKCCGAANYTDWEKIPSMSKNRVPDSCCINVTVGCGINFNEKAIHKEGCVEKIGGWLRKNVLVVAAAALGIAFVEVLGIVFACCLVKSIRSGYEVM
UniProt P13987: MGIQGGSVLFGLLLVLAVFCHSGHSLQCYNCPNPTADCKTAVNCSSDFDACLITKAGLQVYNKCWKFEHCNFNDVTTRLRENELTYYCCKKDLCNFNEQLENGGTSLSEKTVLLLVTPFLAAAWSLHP
UniProt O95810: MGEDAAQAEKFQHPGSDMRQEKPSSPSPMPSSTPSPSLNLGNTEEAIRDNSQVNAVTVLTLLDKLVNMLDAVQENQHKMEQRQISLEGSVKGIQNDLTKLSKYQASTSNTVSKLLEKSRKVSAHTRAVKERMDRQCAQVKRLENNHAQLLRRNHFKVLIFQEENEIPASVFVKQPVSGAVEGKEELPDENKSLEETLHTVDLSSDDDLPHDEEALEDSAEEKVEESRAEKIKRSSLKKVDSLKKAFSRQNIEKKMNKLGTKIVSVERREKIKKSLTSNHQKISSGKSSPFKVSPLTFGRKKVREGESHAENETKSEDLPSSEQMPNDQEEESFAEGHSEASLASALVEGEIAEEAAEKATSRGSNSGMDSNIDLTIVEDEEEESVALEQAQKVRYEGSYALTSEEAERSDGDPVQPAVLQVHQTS
UniProt Q8IUF1: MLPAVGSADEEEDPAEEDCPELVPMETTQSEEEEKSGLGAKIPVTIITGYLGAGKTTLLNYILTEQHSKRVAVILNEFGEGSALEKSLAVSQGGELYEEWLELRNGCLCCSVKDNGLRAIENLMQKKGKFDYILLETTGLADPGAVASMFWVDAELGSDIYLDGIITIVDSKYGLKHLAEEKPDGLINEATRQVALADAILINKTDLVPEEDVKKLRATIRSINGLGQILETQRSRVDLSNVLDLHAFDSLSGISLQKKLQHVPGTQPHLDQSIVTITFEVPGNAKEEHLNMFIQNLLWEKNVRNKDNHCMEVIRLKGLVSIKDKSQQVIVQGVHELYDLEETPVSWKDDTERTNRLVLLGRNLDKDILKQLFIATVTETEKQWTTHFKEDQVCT

Experiments:
Assay in all cases: log2 fold change, soluble protein after heating vs DMSO (PISA); higher = thermal stabilisation; K562 lysate, 10 uM; active = over 0.2 and 3.5 SD of the protein, either way, in both replicates (recomputed)
nilotinib = compound: Cc1cn(-c2cc(NC(=O)c3ccc(C)c(Nc4nccc(-c5cccnc5)n4)c3)cc(C(F)(F)F)c2)cn1 [nilotinib]
Method in brief: (§1)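 To prepare the extract, K562 pellets were dounce-homogenised in PBS pH 7.4 with 1 mM MgCl2, giving crude material at 1 mg/mL protein. This was treated with 10 μM compound for 30 min, then heated in aliquots for 3 min over 48°C-58°C before pooling and addition of NP-40 to 0.5% at 4°C. Centrifugation at 21,000xg for 90 min left soluble protein in the supernatant, which TMTpro 16plex LC-MS/MS quantified with equalised channel sums. Results are log-two fold changes in thermal stability compared with solvent controls, from duplicates.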

[1] = compound: Cc1nc(Nc2n[nH]c3c2CN(C(=O)N[C@H](CN(C)C)c2ccccc2)C3(C)C)c2sccc2n1
Method in brief: as §1

dasatinib = compound: Cc1nc(Nc2ncc(C(=O)Nc3c(C)cccc3Cl)s2)cc(N2CCN(CCO)CC2)n1 [dasatinib]
Method in brief: as §1

[2] = compound: Cc1ncc(-c2ccnc(Nc3ccc(S(C)(=O)=O)cc3)n2)n1C(C)C
Method in brief: as §1

[3] = compound: Cn1cc(-c2ccc3c(c2)CCN3C(=O)Cc2cccc(C(F)(F)F)c2)c2c(N)ncnc21
Method in brief: as §1

quisinostat = compound: Cn1cc(CNCC2CCN(c3ncc(C(=O)NO)cn3)CC2)c2ccccc21 [quisinostat]
Method in brief: as §1

tipifarnib = compound: Cn1cncc1[C@@](N)(c1ccc(Cl)cc1)c1ccc2c(c1)c(-c1cccc(Cl)c1)cc(=O)n2C [tipifarnib]
Method in brief: as §1

[4] = compound: NC(=O)Nc1cc(-c2cccc(F)c2)sc1C(=O)N[C@H]1CCCNC1
Method in brief: as §1

[5] = compound: NC(=O)c1cnc(N[C@@H]2CCCC[C@@H]2N)nc1Nc1cccc(-n2nccn2)c1
Method in brief: as §1

[6] = compound: NC1(c2ccc(-c3nc4ccn5c(=O)[nH]nc5c4cc3-c3ccccc3)cc2)CCC1
Method in brief: as §1

[7] = compound: NCC(=O)Nc1ccc(-n2nc(C(F)(F)F)cc2-c2ccc3c(ccc4ccccc43)c2)cc1
Method in brief: as §1

vorinostat = compound: O=C(CCCCCCC(=O)Nc1ccccc1)NO [vorinostat]
Method in brief: as §1

silmitasertib = compound: O=C(O)c1ccc2c(c1)nc(Nc1cccc(Cl)c1)c1ccncc12 [silmitasertib]
Method in brief: as §1

[8] = compound: O=C1NC(=O)C(c2cnc3ccccn23)=C1c1cn2c3c(cc(F)cc13)CN(C(=O)N1CCCCC1)CC2
Method in brief: as §1

entospletinib = compound: c1cn2cc(-c3ccc4cn[nH]c4c3)nc(Nc3ccc(N4CCOCC4)cc3)c2n1 [entospletinib]
Method in brief: as §1

Measured: log2 fold change

CD2BP2 (UniProt O95400)
inactive: nilotinib -0.016 | [1] -0.007 | dasatinib -0.009 | [2] 0.014 | [3] 0.008 | quisinostat -0.023 | tipifarnib -0.05 | [4] 0.007 | [5] 0.022 | [6] 0.021 | [7] 0.035 | vorinostat -0.052 | silmitasertib -0.027 | [8] 0.003 | entospletinib 0.007

CASP10 isoform 4 (UniProt Q92851)
inactive: nilotinib -0.017 | [1] 0.018 | dasatinib -0.011 | [2] 0.05 | [3] 0.034 | quisinostat 0.002 | tipifarnib -0.013 | [4] 0.004 | [5] 0.009 | [6] -0.002 | [7] -0.001 | vorinostat -0.157 | silmitasertib 0.011 | [8] 0.018 | entospletinib -0.016

CCNY (UniProt Q8ND76)
active: vorinostat -0.822
inactive: nilotinib 0.017 | [1] 0.016 | dasatinib -0.021 | [2] 0.05 | [3] 0.065 | quisinostat -0.216 | tipifarnib 0.057 | [4] 0.077 | [5] -0.022 | [6] 0.025 | [7] 0.076 | silmitasertib -0.018 | [8] -0.002 | entospletinib -0.074

CCNH (UniProt P51946)
inactive: nilotinib -0.013 | [1] 0.106 | dasatinib 0.03 | [2] -0.001 | [3] 0.015 | quisinostat 0.016 | tipifarnib -0.043 | [4] -0.009 | [5] 0.026 | [6] 0.013 | [7] 0.028 | silmitasertib 0.02 | [8] -0.07 | entospletinib 0.02
active: vorinostat -0.43

Pulled one by one from the list above (2):
CCNH (UniProt P51946)
inactive: nilotinib -0.013 | [1] 0.106 | dasatinib 0.03 | [2] -0.001 | [3] 0.015 | quisinostat 0.016 | tipifarnib -0.043 | [4] -0.009 | [5] 0.026 | [6] 0.013 | [7] 0.028 | silmitasertib 0.02 | [8] -0.07 | entospletinib 0.02
active: vorinostat -0.43

CCNY (UniProt Q8ND76)
active: vorinostat -0.822
inactive: nilotinib 0.017 | [1] 0.016 | dasatinib -0.021 | [2] 0.05 | [3] 0.065 | quisinostat -0.216 | tipifarnib 0.057 | [4] 0.077 | [5] -0.022 | [6] 0.025 | [7] 0.076 | silmitasertib -0.018 | [8] -0.002 | entospletinib -0.074

Next results:

CCDC43 (UniProt Q96MW1)
inactive: nilotinib -0.019 | [1] 0.027 | dasatinib -0.044 | [2] -0.026 | [3] 0.018 | quisinostat -0.026 | tipifarnib 0.023 | [4] -0.032 | [5] 0.005 | [6] 0 | [7] 0.022 | vorinostat 0.054 | silmitasertib -0.05 | [8] -0.016 | entospletinib -0.023

CCDC134 (UniProt Q9H6E4)
inactive: nilotinib -0.02 | [1] 0.002 | dasatinib 0.02 | [2] 0.041 | [3] 0.015 | quisinostat 0.146 | tipifarnib 0.007 | [4] -0.007 | [5] 0.008 | [6] 0.008 | [7] -0.037 | vorinostat 0.063 | silmitasertib 0.001 | [8] -0.035 | entospletinib 0.019

CCDC9 (UniProt Q9Y3X0)
inactive: nilotinib -0.014 | [1] -0.047 | dasatinib 0.007 | [2] 0.011 | [3] -0.006 | quisinostat -0.01 | tipifarnib 0.05 | [4] -0.006 | [5] 0.003 | [6] 0.041 | [7] 0.003 | vorinostat 0.139 | silmitasertib -0.031 | [8] -0.007 | entospletinib -0.036

CCT7 (UniProt Q99832)
inactive: nilotinib -0.006 | [1] 0.006 | dasatinib 0.044 | [2] 0.001 | [3] -0.004 | quisinostat 0.032 | tipifarnib 0.008 | [4] -0.024 | [5] 0.001 | [6] -0.008 | [7] 0.015 | vorinostat 0.031 | silmitasertib 0.022 | [8] 0.023 | entospletinib 0.062

CBFB isoform 2 (UniProt Q13951)
inactive: nilotinib 0.009 | [1] 0.036 | dasatinib -0.01 | [2] 0.062 | [3] 0.019 | quisinostat 0.073 | tipifarnib -0.007 | [4] -0.001 | [5] 0.004 | [6] 0.037 | [7] 0.024 | vorinostat 0.033 | silmitasertib -0.022 | [8] -0.049 | entospletinib 0.019

CD320 (UniProt Q9NPF0)
inactive: nilotinib -0.046 | [1] 0.036 | dasatinib -0.025 | [2] 0.061 | [3] 0.001 | quisinostat 0.076 | tipifarnib -0.07 | [4] 0.016 | [5] 0.019 | [6] -0.047 | [7] -0.008 | vorinostat 0.062 | silmitasertib 0.053 | [8] -0.018 | entospletinib -0.087

CARS isoform 3 (UniProt P49589)
active: vorinostat -0.254
inactive: nilotinib -0.019 | [1] -0.007 | dasatinib -0.024 | [2] -0.007 | [3] 0.012 | quisinostat 0.048 | tipifarnib 0.007 | [4] 0.004 | [5] 0.001 | [6] -0.01 | [7] 0.018 | silmitasertib 0.018 | [8] -0.049 | entospletinib 0.008

CBR1 (UniProt P16152)
inactive: nilotinib 0.046 | [1] 0.046 | dasatinib 0.1 | [2] 0.076 | [3] -0.02 | quisinostat 0.113 | tipifarnib -0.001 | [4] -0.021 | [5] -0.02 | [6] 0.016 | [7] -0.01 | silmitasertib -0.024 | [8] 0.033 | entospletinib 0.006
active: vorinostat -0.377

CCDC50 isoform 2 (UniProt Q8IVM0)
inactive: nilotinib -0.055 | [1] 0.019 | dasatinib 0.008 | [2] -0.002 | [3] 0.076 | quisinostat -0.008 | tipifarnib 0.017 | [4] -0.014 | [5] -0.003 | [6] 0.057 | [7] -0.062 | vorinostat -0.001 | silmitasertib 0.012 | [8] -0.003 | entospletinib 0.01

CBX5 (UniProt P45973)
inactive: nilotinib 0.014 | [1] 0.011 | dasatinib 0.028 | [2] 0.052 | [3] -0.017 | quisinostat -0.09 | tipifarnib -0.024 | [4] 0.014 | [5] -0.004 | [6] 0.007 | [7] 0.033 | vorinostat -0.062 | silmitasertib -0.005 | [8] -0.048 | entospletinib 0.014

CBLL1 (UniProt Q75N03)
inactive: nilotinib 0.045 | [1] 0.002 | dasatinib -0.043 | [2] -0.039 | [3] -0.019 | quisinostat 0.039 | tipifarnib 0.05 | [4] -0.045 | [5] 0.066 | [6] -0.031 | [7] 0.017 | vorinostat 0.106 | silmitasertib -0.125 | [8] -0.091 | entospletinib -0.025

CCDC174 (UniProt Q6PII3)
inactive: nilotinib -0.024 | [1] 0.035 | dasatinib 0.012 | [2] -0.037 | [3] -0.034 | quisinostat -0.051 | tipifarnib -0.026 | [4] -0.005 | [5] -0.001 | [6] 0.022 | [7] 0.085 | vorinostat 0.081 | silmitasertib -0.057 | [8] -0.029 | entospletinib 0.034

CD63 (UniProt P08962)
inactive: nilotinib -0.053 | [1] 0.098 | dasatinib -0.034 | [2] -0.032 | [3] 0.005 | quisinostat -0.08 | tipifarnib 0.126 | [4] -0.006 | [5] -0.043 | [6] -0.009 | [7] -0.1 | vorinostat 0.123 | silmitasertib -0.039 | [8] -0.173 | entospletinib 0.077

CD59 isoform 2 (UniProt P13987)
inactive: nilotinib -0.106 | [1] -0.084 | dasatinib 0.046 | [2] -0.194 | [3] 0.037 | quisinostat -0.107 | tipifarnib -0.038 | [4] 0 | [5] -0.002 | [6] 0.031 | [7] -0.001 | vorinostat 0.089 | silmitasertib -0.043 | [8] 0.022 | entospletinib -0.088

CAVIN2 (UniProt O95810)
inactive: nilotinib 0.038 | [1] 0.012 | dasatinib 0.016 | [2] 0.007 | [3] -0.029 | quisinostat 0 | tipifarnib 0.013 | [4] -0.008 | [5] 0.004 | [6] 0.024 | [7] 0.034 | vorinostat 0.131 | silmitasertib -0.027 | [8] 0.002 | entospletinib 0.005

CBWD2 (UniProt Q8IUF1)
inactive: nilotinib 0.084 | [1] -0.032 | dasatinib -0.009 | [2] 0.055 | [3] -0.03 | quisinostat 0.006 | tipifarnib 0.014 | [4] 0.003 | [5] 0.038 | [6] -0.016 | [7] 0.022 | vorinostat -0.083 | silmitasertib 0.035 | [8] 0.005 | entospletinib 0.059
